The experiment deals with T1, USP22 (human (endogenous in OC cells A2780 and SKOV3)) (UniProt Q9UPT9).
T1 sequence: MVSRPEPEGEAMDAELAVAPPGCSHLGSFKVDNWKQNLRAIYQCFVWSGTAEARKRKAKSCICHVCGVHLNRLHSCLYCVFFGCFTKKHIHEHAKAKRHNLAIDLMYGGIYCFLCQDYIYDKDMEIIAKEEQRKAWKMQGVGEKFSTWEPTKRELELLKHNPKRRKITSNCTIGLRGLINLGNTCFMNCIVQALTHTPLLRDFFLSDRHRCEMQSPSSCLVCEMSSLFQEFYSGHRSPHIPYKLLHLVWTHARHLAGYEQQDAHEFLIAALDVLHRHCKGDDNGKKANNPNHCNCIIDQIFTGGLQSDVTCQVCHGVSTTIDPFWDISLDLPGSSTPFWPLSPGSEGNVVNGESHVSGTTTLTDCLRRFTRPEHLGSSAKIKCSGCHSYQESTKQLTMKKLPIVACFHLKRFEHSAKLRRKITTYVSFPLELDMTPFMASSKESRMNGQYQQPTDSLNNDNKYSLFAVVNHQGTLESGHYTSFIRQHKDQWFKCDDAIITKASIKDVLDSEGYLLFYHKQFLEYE
Briefly: co-IP; cell lysate incubated with anti-USP22 (or control anti-IgG) overnight at 4°C, Protein G magnetic beads, western blot. (Immunoblotting shows a protein as a band on a membrane.)

These are yes or no findings as the source states them, for the method shown. Binding seen in cells or lysates may run through a third protein. Some entries that bind do so weakly or less than the wild type.

B1: Zinc finger E-box-binding homeobox 1 (protein, UniProt P37275 1-1124)
chain: MADGPRCKRRKQANPRRNNVTNYNTVVETNSDSDDEDKLHIVEEESVTDAADCEGVPEDDLPTDQTVLPGRSSEREGNAKNCWEDDRKEGQEILGPEAQADEAGCTVKDDECESDAENEQNHDPNVEEFLQQQDTAVIFPEAPEEDQRQGTPEASGHDENGTPDAFSQLLTCPYCDRGYKRFTSLKEHIKYRHEKNEDNFSCSLCSYTFAYRTQLERHMTSHKSGRDQRHVTQSGCNRKFKCTECGKAFKYKHHLKEHLRIHSGEKPYECPNCKKRFSHSGSYSSHISSKKCISLIPVNGRPRTGLKTSQCSSPSLSASPGSPTRPQIRQKIENKPLQEQLSVNQIKTEPVDYEFKPIVVASGINCSTPLQNGVFTGGGPLQATSSPQGMVQAVVLPTVGLVSPISINLSDIQNVLKVAVDGNVIRQVLENNQANLASKEQETINASPIQQGGHSVISAISLPLVDQDGTTKIIINYSLEQPSQLQVVPQNLKKENPVATNSCKSEKLPEDLTVKSEKDKSFEGGVNDSTCLLCDDCPGDINALPELKHYDLKQPTQPPPLPAAEAEKPESSVSSATGDGNLSPSQPPLKNLLSLLKAYYALNAQPSAEELSKIADSVNLPLDVVKKWFEKMQAGQISVQSSEPSSPEPGKVNIPAKNNDQPQSANANEPQDSTVNLQSPLKMTNSPVLPVGSTTNGSRSSTPSPSPLNLSSSRNTQGYLYTAEGAQEEPQVEPLDLSLPKQQGELLERSTITSVYQNSVYSVQEEPLNLSCAKKEPQKDSCVTDSEPVVNVIPPSANPINIAIPTVTAQLPTIVAIADQNSVPCLRALAANKQTILIPQVAYTYSTTVSPAVQEPPLKVIQPNGNQDERQDTSSEGVSNVEDQNDSDSTPPKKKMRKTENGMYACDLCDKIFQKSSSLLRHKYEHTGKRPHECGICKKAFKHKHHLIEHMRLHSGEKPYQCDKCGKRFSHSGSYSQHMNHRYSYCKREAEERDSTEQEEAGPEILSNEHVGARASPSQGDSDERESLTREEDEDSEKEEEEEDKEMEELQEEKECEKPQGDEEEEEEEEEVEEEEVEEAENEGEEAKTEGLMKDDRAESQASSLGQKVGESSEQVSEEKTNEA
With B1, the binding entry is recorded as “binds”.

The values are drawn from PMC11559372.
